# Source: article PMC5707401
# Chains of the proteins cited; added tags and fusions are not shown.
# UniProt Q9UMS4: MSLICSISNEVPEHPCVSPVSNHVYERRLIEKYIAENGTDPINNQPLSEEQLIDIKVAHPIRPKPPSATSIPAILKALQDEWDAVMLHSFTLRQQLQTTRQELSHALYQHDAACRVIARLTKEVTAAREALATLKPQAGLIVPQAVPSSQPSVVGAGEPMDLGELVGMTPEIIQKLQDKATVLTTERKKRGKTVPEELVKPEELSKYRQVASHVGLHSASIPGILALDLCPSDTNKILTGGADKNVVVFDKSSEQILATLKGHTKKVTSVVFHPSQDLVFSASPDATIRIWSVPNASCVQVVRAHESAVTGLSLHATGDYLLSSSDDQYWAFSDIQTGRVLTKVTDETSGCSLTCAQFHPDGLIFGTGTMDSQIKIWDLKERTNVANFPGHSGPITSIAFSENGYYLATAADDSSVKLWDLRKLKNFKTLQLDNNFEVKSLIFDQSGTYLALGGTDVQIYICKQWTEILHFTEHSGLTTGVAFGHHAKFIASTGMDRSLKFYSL
# UniProt P46379: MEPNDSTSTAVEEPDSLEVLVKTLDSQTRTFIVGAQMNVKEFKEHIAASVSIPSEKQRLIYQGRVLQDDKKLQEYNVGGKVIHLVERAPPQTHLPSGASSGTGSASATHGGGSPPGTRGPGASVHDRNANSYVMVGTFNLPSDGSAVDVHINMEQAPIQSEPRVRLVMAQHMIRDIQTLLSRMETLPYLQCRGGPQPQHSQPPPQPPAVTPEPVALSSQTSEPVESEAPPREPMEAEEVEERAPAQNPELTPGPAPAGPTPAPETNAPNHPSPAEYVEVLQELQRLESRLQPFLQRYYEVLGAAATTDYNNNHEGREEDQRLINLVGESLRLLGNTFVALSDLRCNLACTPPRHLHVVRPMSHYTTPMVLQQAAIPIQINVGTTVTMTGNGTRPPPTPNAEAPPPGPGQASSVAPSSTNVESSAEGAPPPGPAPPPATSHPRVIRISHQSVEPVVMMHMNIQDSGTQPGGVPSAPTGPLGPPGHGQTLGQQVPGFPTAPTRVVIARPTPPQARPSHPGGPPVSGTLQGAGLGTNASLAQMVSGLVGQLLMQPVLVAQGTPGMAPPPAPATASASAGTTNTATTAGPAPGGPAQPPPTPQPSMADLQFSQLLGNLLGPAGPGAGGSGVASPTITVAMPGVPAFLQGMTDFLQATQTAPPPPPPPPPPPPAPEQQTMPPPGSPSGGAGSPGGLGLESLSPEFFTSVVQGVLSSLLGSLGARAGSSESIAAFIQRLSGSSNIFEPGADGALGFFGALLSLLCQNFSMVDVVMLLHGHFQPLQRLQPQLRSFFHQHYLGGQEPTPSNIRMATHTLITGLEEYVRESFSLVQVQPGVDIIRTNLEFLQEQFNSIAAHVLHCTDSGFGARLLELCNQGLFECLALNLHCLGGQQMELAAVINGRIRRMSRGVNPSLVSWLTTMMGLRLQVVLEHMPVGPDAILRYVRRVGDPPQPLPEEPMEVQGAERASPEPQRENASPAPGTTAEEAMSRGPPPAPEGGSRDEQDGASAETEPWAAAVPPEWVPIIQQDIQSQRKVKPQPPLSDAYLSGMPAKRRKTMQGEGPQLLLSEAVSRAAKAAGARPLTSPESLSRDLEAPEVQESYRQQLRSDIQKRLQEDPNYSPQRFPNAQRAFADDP
# UniProt Q16531: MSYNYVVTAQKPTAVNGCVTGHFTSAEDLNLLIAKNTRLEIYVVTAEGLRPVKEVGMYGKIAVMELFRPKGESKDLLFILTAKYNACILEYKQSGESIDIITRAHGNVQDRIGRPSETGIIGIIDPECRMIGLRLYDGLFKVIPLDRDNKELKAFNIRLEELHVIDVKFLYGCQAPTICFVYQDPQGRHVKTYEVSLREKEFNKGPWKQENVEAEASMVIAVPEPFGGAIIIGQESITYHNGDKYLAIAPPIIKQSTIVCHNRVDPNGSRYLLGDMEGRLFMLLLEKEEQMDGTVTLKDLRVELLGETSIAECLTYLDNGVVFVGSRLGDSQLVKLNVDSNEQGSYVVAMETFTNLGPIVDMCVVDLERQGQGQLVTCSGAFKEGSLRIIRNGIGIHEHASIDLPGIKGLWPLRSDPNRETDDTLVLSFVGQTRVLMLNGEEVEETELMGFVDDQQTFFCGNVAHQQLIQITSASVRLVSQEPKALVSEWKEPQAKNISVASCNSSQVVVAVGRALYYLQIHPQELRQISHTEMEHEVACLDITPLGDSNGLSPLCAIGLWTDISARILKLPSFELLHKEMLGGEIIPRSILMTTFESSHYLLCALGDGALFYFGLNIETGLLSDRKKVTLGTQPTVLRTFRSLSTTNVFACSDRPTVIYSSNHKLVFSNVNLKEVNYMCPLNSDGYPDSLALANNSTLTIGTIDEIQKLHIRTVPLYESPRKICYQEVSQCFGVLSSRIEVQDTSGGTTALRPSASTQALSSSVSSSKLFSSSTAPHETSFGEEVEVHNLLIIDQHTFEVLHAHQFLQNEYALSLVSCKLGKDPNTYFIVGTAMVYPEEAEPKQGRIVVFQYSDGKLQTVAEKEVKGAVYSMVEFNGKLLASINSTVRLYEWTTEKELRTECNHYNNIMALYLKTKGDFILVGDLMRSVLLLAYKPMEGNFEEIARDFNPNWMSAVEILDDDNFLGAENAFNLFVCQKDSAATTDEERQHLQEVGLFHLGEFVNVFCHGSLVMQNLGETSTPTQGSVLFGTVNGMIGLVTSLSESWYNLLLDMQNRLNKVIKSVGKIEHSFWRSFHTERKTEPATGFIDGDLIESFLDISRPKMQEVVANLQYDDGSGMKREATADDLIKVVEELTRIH
# UniProt Q7L5D6: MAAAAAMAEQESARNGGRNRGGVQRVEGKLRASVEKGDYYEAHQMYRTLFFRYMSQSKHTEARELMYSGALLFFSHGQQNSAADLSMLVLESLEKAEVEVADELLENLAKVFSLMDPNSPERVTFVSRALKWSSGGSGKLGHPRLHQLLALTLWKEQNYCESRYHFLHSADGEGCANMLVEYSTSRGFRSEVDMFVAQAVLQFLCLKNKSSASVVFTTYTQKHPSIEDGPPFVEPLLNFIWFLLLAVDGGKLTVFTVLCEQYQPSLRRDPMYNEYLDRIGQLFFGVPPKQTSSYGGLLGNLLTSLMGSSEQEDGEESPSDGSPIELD
# UniProt P08238: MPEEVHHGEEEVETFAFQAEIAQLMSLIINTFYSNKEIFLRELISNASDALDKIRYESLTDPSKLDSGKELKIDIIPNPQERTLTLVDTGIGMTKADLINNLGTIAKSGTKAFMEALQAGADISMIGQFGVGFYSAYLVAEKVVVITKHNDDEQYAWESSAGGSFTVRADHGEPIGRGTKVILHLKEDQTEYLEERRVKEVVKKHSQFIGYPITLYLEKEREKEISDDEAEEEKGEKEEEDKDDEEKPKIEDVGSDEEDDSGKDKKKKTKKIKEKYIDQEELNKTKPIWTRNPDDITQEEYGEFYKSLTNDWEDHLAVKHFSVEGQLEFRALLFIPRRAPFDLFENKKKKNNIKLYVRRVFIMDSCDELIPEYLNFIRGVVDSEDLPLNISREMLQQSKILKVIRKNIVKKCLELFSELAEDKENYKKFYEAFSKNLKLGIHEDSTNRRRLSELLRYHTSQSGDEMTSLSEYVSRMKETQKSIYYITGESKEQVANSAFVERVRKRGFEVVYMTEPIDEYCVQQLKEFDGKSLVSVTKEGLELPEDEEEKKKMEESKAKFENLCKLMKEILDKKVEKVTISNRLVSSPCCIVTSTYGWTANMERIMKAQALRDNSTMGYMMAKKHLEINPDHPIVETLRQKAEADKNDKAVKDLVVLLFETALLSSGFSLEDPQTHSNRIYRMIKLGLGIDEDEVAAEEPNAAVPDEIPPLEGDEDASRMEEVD
# UniProt P62191: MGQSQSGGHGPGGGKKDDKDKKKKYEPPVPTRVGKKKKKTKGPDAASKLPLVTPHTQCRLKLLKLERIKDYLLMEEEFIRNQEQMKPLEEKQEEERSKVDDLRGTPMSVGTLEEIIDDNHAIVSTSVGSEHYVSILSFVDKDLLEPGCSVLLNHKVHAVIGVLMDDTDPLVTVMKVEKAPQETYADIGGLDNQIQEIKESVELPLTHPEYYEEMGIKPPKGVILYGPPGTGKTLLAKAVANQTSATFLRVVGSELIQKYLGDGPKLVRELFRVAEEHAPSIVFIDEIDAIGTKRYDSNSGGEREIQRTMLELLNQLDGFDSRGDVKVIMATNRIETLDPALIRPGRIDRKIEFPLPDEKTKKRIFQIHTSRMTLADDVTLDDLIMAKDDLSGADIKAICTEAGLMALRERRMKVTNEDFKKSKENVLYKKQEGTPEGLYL
# UniProt O75643: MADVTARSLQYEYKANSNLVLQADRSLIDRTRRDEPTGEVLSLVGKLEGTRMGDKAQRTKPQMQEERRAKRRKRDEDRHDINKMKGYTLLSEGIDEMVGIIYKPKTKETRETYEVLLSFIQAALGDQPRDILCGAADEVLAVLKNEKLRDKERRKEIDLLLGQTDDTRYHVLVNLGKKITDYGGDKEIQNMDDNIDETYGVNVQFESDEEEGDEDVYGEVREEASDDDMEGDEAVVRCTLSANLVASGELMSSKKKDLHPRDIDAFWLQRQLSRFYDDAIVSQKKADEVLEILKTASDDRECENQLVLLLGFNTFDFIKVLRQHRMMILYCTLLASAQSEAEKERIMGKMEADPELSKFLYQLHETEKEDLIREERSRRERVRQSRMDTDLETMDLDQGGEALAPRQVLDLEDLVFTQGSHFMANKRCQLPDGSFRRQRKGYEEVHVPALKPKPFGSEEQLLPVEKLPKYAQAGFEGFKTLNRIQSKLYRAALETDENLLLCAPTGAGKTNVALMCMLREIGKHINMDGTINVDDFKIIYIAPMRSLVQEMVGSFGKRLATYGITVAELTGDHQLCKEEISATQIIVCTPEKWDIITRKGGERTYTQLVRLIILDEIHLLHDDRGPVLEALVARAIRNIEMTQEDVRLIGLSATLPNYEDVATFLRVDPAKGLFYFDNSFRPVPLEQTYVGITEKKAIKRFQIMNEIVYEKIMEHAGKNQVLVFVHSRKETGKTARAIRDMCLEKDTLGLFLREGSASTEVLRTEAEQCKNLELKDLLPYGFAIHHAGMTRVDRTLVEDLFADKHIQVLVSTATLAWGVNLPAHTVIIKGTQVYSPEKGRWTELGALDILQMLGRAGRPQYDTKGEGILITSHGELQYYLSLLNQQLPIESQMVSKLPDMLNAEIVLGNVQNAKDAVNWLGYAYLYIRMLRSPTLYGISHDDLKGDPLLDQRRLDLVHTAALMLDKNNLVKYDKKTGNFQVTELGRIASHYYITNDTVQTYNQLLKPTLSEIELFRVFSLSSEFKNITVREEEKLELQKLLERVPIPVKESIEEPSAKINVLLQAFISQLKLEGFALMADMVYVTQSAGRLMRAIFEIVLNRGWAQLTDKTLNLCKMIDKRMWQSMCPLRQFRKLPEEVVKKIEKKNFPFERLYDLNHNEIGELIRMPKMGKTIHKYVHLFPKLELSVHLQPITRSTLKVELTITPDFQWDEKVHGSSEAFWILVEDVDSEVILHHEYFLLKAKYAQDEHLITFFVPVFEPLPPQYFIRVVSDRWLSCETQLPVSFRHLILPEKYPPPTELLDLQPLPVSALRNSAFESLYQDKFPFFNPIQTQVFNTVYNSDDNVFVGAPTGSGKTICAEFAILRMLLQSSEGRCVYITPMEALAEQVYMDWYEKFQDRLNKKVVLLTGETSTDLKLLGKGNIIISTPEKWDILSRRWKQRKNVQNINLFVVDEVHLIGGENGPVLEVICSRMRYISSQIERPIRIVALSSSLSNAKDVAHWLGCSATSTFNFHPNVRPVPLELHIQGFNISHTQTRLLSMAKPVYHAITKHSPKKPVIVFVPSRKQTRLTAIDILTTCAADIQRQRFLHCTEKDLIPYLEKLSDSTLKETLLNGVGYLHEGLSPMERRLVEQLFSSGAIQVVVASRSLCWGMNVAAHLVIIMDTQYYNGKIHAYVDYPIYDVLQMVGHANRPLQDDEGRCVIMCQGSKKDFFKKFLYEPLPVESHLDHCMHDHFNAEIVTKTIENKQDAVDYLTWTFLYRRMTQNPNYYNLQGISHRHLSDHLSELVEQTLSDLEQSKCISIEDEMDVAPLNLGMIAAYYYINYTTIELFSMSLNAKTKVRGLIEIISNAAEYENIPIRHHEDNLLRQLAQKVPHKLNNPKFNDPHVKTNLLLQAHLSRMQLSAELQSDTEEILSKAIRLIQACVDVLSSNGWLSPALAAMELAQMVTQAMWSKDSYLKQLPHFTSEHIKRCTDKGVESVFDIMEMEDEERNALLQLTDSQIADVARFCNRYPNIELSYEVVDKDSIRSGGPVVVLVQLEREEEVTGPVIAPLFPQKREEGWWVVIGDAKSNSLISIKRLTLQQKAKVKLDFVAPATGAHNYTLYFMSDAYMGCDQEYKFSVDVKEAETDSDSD
# UniProt P62318: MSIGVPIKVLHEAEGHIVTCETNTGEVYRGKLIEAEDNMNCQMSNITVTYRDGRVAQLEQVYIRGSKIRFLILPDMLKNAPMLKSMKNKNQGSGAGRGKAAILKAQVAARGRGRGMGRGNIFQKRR
# No constants are given. Whether binding was seen depends on the method and setting. In cells and extracts the contact can be indirect. These calls come from enrichment with a bait or labelling near it, and not all partners need be listed.
# B1: PLRG1 (protein, UniProt O43660 1-514)
# chain: MVEEVQKHSVHTLVFRSLKRTHDMFVADNGKPVPLDEESHKRKMAIKLRNEYGPVLHMPTSKENLKEKGPQNATDSYVHKQYPANQGQEVEYFVAGTHPYPPGPGVALTADTKIQRMPSESAAQSLAVALPLQTKADANRTAPSGSEYRHPGASDRPQPTAMNSIVMETGNTKNSALMAKKAPTMPKPQWHPPWKLYRVISGHLGWVRCIAVEPGNQWFVTGSADRTIKIWDLASGKLKLSLTGHISTVRGVIVSTRSPYLFSCGEDKQVKCWDLEYNKVIRHYHGHLSAVYGLDLHPTIDVLVTCSRDSTARIWDVRTKASVHTLSGHTNAVATVRCQAAEPQIITGSHDTTIRLWDLVAGKTRVTLTNHKKSVRAVVLHPRHYTFASGSPDNIKQWKFPDGSFIQNLSGHNAIINTLTVNSDGVLVSGADNGTMHLWDWRTGYNFQRVHAAVQPGSLDSESGIFACAFDQSESRLLTAEADKTIKVYREDDTATEETHPVSWKPEIIKRKRF
# B2: ubiquitin-specific peptidase USP19 (protein, UniProt O94966 1-1318)
# chain: MSGGASATGPRRGPPGLEDTTSKKKQKDRANQESKDGDPRKETGSRYVAQAGLEPLASGDPSASASHAAGITGSRHRTRLFFPSSSGSASTPQEEQTKEGACEDPHDLLATPTPELLLDWRQSAEEVIVKLRVGVGPLQLEDVDAAFTDTDCVVRFAGGQQWGGVFYAEIKSSCAKVQTRKGSLLHLTLPKKVPMLTWPSLLVEADEQLCIPPLNSQTCLLGSEENLAPLAGEKAVPPGNDPVSPAMVRSRNPGKDDCAKEEMAVAADAATLVDEPESMVNLAFVKNDSYEKGPDSVVVHVYVKEICRDTSRVLFREQDFTLIFQTRDGNFLRLHPGCGPHTTFRWQVKLRNLIEPEQCTFCFTASRIDICLRKRQSQRWGGLEAPAARVGGAKVAVPTGPTPLDSTPPGGAPHPLTGQEEARAVEKDKSKARSEDTGLDSVATRTPMEHVTPKPETHLASPKPTCMVPPMPHSPVSGDSVEEEEEEEKKVCLPGFTGLVNLGNTCFMNSVIQSLSNTRELRDFFHDRSFEAEINYNNPLGTGGRLAIGFAVLLRALWKGTHHAFQPSKLKAIVASKASQFTGYAQHDAQEFMAFLLDGLHEDLNRIQNKPYTETVDSDGRPDEVVAEEAWQRHKMRNDSFIVDLFQGQYKSKLVCPVCAKVSITFDPFLYLPVPLPQKQKVLPVFYFAREPHSKPIKFLVSVSKENSTASEVLDSLSQSVHVKPENLRLAEVIKNRFHRVFLPSHSLDTVSPSDTLLCFELLSSELAKERVVVLEVQQRPQVPSVPISKCAACQRKQQSEDEKLKRCTRCYRVGYCNQLCQKTHWPDHKGLCRPENIGYPFLVSVPASRLTYARLAQLLEGYARYSVSVFQPPFQPGRMALESQSPGCTTLLSTGSLEAGDSERDPIQPPELQLVTPMAEGDTGLPRVWAAPDRGPVPSTSGISSEMLASGPIEVGSLPAGERVSRPEAAVPGYQHPSEAMNAHTPQFFIYKIDSSNREQRLEDKGDTPLELGDDCSLALVWRNNERLQEFVLVASKELECAEDPGSAGEAARAGHFTLDQCLNLFTRPEVLAPEEAWYCPQCKQHREASKQLLLWRLPNVLIVQLKRFSFRSFIWRDKINDLVEFPVRNLDLSKFCIGQKEEQLPSYDLYAVINHYGGMIGGHYTACARLPNDRSSQRSDVGWRLFDDSTVTTVDESQVVTRYAYVLFYRRRNSPVERPPRAGHSEHHPDLGPAAEAAASQASRIWQELEAEEEPVPEGSGPLGPWGPQDWVGPLPRGPTTPDEGCLRYFVLGTVAALVALVLNVFYPLVSQSRWR
# B3: XAB2 (protein, UniProt Q9HCS7 1-855)
# chain: MVVMARLSRPERPDLVFEEEDLPYEEEIMRNQFSVKCWLRYIEFKQGAPKPRLNQLYERALKLLPCSYKLWYRYLKARRAQVKHRCVTDPAYEDVNNCHERAFVFMHKMPRLWLDYCQFLMDQGRVTHTRRTFDRALRALPITQHSRIWPLYLRFLRSHPLPETAVRGYRRFLKLSPESAEEYIEYLKSSDRLDEAAQRLATVVNDERFVSKAGKSNYQLWHELCDLISQNPDKVQSLNVDAIIRGGLTRFTDQLGKLWCSLADYYIRSGHFEKARDVYEEAIRTVMTVRDFTQVFDSYAQFEESMIAAKMETASELGREEEDDVDLELRLARFEQLISRRPLLLNSVLLRQNPHHVHEWHKRVALHQGRPREIINTYTEAVQTVDPFKATGKPHTLWVAFAKFYEDNGQLDDARVILEKATKVNFKQVDDLASVWCQCGELELRHENYDEALRLLRKATALPARRAEYFDGSEPVQNRVYKSLKVWSMLADLEESLGTFQSTKAVYDRILDLRIATPQIVINYAMFLEEHKYFEESFKAYERGISLFKWPNVSDIWSTYLTKFIARYGGRKLERARDLFEQALDGCPPKYAKTLYLLYAQLEEEWGLARHAMAVYERATRAVEPAQQYDMFNIYIKRAAEIYGVTHTRGIYQKAIEVLSDEHAREMCLRFADMECKLGEIDRARAIYSFCSQICDPRTTGAFWQTWKDFEVRHGNEDTIKEMLRIRRSVQATYNTQVNFMASQMLKVSGSATGTVSDLAPGQSGMDDMKLLEQRAEQLAAEAERDQPLRAQSKILFVRSDASREELAELAQQVNPEEIQLGEDEDEDEMDLEPNEVRLEQQSVPAAVFGSLKED
# B4: AQR (protein, UniProt O60306 1-1485)
# chain: MAAPAQPKKIVAPTVSQINAEFVTQLACKYWAPHIKKKSPFDIKVIEDIYEKEIVKSRFAIRKIMLLEFSQYLENYLWMNYSPEVSSKAYLMSICCMVNEKFRENVPAWEIFKKKPDHFPFFFKHILKAALAETDGEFSLHEQTVLLLFLDHCFNSLEVDLIRSQVQQLISLPMWMGLQLARLELELKKTPKLRKFWNLIKKNDEKMDPEAREQAYQERRFLSQLIQKFISVLKSVPLSEPVTMDKVHYCERFIELMIDLEALLPTRRWFNTILDDSHLLVHCYLSNLVRREEDGHLFSQLLDMLKFYTGFEINDQTGNALTENEMTTIHYDRITSLQRAAFAHFPELYDFALSNVAEVDTRESLVKFFGPLSSNTLHQVASYLCLLPTLPKNEDTTFDKEFLLELLVSRHERRISQIQQLNQMPLYPTEKIIWDENIVPTEYYSGEGCLALPKLNLQFLTLHDYLLRNFNLFRLESTYEIRQDIEDSVSRMKPWQSEYGGVVFGGWARMAQPIVAFTVVEVAKPNIGENWPTRVRADVTINLNVRDHIKDEWEGLRKHDVCFLITVRPTKPYGTKFDRRRPFIEQVGLVYVRGCEIQGMLDDKGRVIEDGPEPRPNLRGESRTFRVFLDPNQYQQDMTNTIQNGAEDVYETFNIIMRRKPKENNFKAVLETIRNLMNTDCVVPDWLHDIILGYGDPSSAHYSKMPNQIATLDFNDTFLSIEHLKASFPGHNVKVTVEDPALQIPPFRITFPVRSGKGKKRKDADVEDEDTEEAKTLIVEPHVIPNRGPYPYNQPKRNTIQFTHTQIEAIRAGMQPGLTMVVGPPGTGKTDVAVQIISNIYHNFPEQRTLIVTHSNQALNQLFEKIMALDIDERHLLRLGHGEEELETEKDFSRYGRVNYVLARRIELLEEVKRLQKSLGVPGDASYTCETAGYFFLYQVMSRWEEYISKVKNKGSTLPDVTEVSTFFPFHEYFANAPQPIFKGRSYEEDMEIAEGCFRHIKKIFTQLEEFRASELLRSGLDRSKYLLVKEAKIIAMTCTHAALKRHDLVKLGFKYDNILMEEAAQILEIETFIPLLLQNPQDGFSRLKRWIMIGDHHQLPPVIKNMAFQKYSNMEQSLFTRFVRVGVPTVDLDAQGRARASLCNLYNWRYKNLGNLPHVQLLPEFSTANAGLLYDFQLINVEDFQGVGESEPNPYFYQNLGEAEYVVALFMYMCLLGYPADKISILTTYNGQKHLIRDIINRRCGNNPLIGRPNKVTTVDRFQGQQNDYILLSLVRTRAVGHLRDVRRLVVAMSRARLGLYIFARVSLFQNCFELTPAFSQLTARPLHLHIIPTEPFPTTRKNGERPSHEVQIIKNMPQMANFVYNMYMHLIQTTHHYHQTLLQLPPAMVEEGEEVQNQETELETEEEAMTVQADIIPSPTDTSCRQETPAFQTDTTPSETGATSTPEAIPALSETTPTVVGAVSAPAEANTPQDATSAPEETK
# B5: SNW1 (protein, UniProt Q13573 1-536)
# chain: MALTSFLPAPTQLSQDQLEAEEKARSQRSRQTSLVSSRREPPPYGYRKGWIPRLLEDFGDGGAFPEIHVAQYPLDMGRKKKMSNALAIQVDSEGKIKYDAIARQGQSKDKVIYSKYTDLVPKEVMNADDPDLQRPDEEAIKEITEKTRVALEKSVSQKVAAAMPVRAADKLAPAQYIRYTPSQQGVAFNSGAKQRVIRMVEMQKDPMEPPRFKINKKIPRGPPSPPAPVMHSPSRKMTVKEQQEWKIPPCISNWKNAKGYTIPLDKRLAADGRGLQTVHINENFAKLAEALYIADRKAREAVEMRAQVERKMAQKEKEKHEEKLREMAQKARERRAGIKTHVEKEDGEARERDEIRHDRRKERQHDRNLSRAAPDKRSKLQRNENRDISEVIALGVPNPRTSNEVQYDQRLFNQSKGMDSGFAGGEDEIYNVYDQAWRGGKDMAQSIYRPSKNLDKDMYGDDLEARIKTNRFVPDKEFSGSDRRQRGREGPVQFEEDPFGLDKFLEEAKQHGGSKRPSDSSRPKEHEHEGKKRRKE
# B6: UBL4A (protein, UniProt P11441 1-157)
# chain: MQLTVKALQGRECSLQVPEDELVSTLKQLVSEKLNVPVRQQRLLFKGKALADGKRLSDYSIGPNSKLNLVVKPLEKVLLEEGEAQRLADSPPPQVWQLISKVLARHFSAADASRVLEQLQRDYERSLSRLTLDDIERLASRFLHPEVTETMEKGFSK
# Target: GFP-tagged PRPF19 (human) (UniProt Q9UMS4)
# Experiment: affinity purification with mass spectrometry; adapted SILAC-based AP: heavy-labelled HEK293T cells expressing the GFP-tagged RBUL mixed in equal amounts with light-labelled cells expressing GFP before lysis in mRIPA buffer; GFP-trap agarose beads, 1 h at 4 °C; on-bead trypsin digest, LC-MS/MS; putative interactors at mean z-score ≥ 2
row,Molecule,binding
1,BAG6/BAT3 (from UniProt P46379 1-1132),binds
2,DDB1 (from UniProt Q16531 1-1140),binds
3,DNAJA1 (from UniProt P31689 1-397),binds
4,GET4/TRC35 (from UniProt Q7L5D6 1-327),binds
5,HSP90AB1 (from UniProt P08238 1-724),binds
6,MDC1 (from UniProt Q14676 1-2089),binds
7,PFDN1 (from UniProt O60925 1-122),binds
8,PFDN2 (from UniProt Q9UHV9 1-154),binds
9,PFDN4 (from UniProt Q9NQP4 1-134),binds
10,PFDN6 (from UniProt O15212 1-129),binds
11,PSMC1 (from UniProt P62191 1-440),binds
12,PSMC2 (from UniProt P35998 1-433),binds
13,PSMC5 (from UniProt P62195 1-406),binds
14,PSMC6 (from UniProt P62333 1-389),binds
15,PSMD2 (from UniProt Q13200 1-908),binds
16,SNRNP200 (from UniProt O75643 1-2136),binds
17,SNRPD3 (from UniProt P62318 1-126),binds
18,SNRPE (from UniProt P62304 1-92),binds
19,VBP1/PFDN3 (from UniProt P61758 1-197),binds
20,B1,binds
21,B2,binds
22,B3,binds
23,B4,binds
24,B5,binds
25,B6,binds
